Data published in the supplement of paper PMC8728848.
The list shows a part of the results.

Legend:
Test in all cases: glycan array binding signal (z-score within array); higher = stronger binding
Settings in all cases: glycan notation: IUPAC condensed, linker removed
[1] = target: Neu5Ac(a2-3)Gal(b1-3)GlcNAc6S
Summary of the method: (§1)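 Glycan array data came from 3228 arrays in the Consortium for Functional Glycomics database, and only arrays with an available protein sequence were kept. Glycan names were put into IUPAC-condensed notation, and columns mapping to the same glycan were averaged. The binding signal is a within-array Z-score, averaged across arrays of one protein sequence run at different concentrations or buffers and across linkers. A negative Z-score can be read as non-binding.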

[2] = target: Neu5Ac(a2-3)Gal(b1-3)[Fuc(a1-4)]GlcNAc
Summary of the method: as §1

[3] = target: Neu5Ac(a2-3)Gal(b1-3)[Fuc(a1-4)]GlcNAc(b1-3)Gal(b1-3)[Fuc(a1-4)]GlcNAc
Summary of the method: as §1

[4] = target: Neu5Ac(a2-3)Gal(b1-3)[Fuc(a1-4)]GlcNAc(b1-3)Gal(b1-4)[Fuc(a1-3)]GlcNAc
Summary of the method: as §1

[5] = target: Neu5Ac(a2-3)Gal(b1-3)[GlcNAc(b1-6)]GalNAc
Summary of the method: as §1

[6] = target: Neu5Ac(a2-3)Gal(b1-3)[Neu5Ac(a2-6)]GalNAc
Summary of the method: as §1

[7] = target: Neu5Ac(a2-3)Gal(b1-3)[Neu5Ac(a2-6)]GlcNAc(b1-3)[Fuc(a1-3)[Gal(b1-4)]GlcNAc(b1-6)]Gal(b1-4)Glc
Summary of the method: as §1

[8] = target: Neu5Ac(a2-3)Gal(b1-3)]Neu5Ac(a2-3)Gal(b1-4)]GlcNAc
Summary of the method: as §1

Neu5Ac(a2-3)Gal(b1-4)Glc = target: Neu5Ac(a2-3)Gal(b1-4)Glc
Summary of the method: as §1

[9] = target: Neu5Ac(a2-3)Gal(b1-4)GlcNAc
Summary of the method: as §1

[10] = target: Neu5Ac(a2-3)Gal(b1-4)GlcNAc(b1-2)Man
Summary of the method: as §1

[11] = target: Neu5Ac(a2-3)Gal(b1-4)GlcNAc(b1-2)Man(a1-3)[GlcNAc(b1-4)][Neu5Ac(a2-3)Gal(b1-4)GlcNAc(b1-2)Man(a1-6)]Man(b1-4)GlcNAc(b1-4)GlcNAc
Summary of the method: as §1

[12] = target: Neu5Ac(a2-3)Gal(b1-4)GlcNAc(b1-2)Man(a1-3)[Neu5Ac(a2-3)Gal(b1-4)GlcNAc(b1-2)Man(a1-6)]Man(b1-4)GlcNAc(b1-4)GlcNAc
Summary of the method: as §1

[13] = target: Neu5Ac(a2-3)Gal(b1-4)GlcNAc(b1-2)Man(a1-3)[Neu5Ac(a2-3)Gal(b1-4)GlcNAc(b1-2)Man(a1-6)]Man(b1-4)GlcNAc(b1-4)[Fuc(a1-6)]GlcNAc
Summary of the method: as §1

[14] = target: Neu5Ac(a2-3)Gal(b1-4)GlcNAc(b1-2)Man(a1-3)[Neu5Ac(a2-6)Gal(b1-4)GlcNAc(b1-2)Man(a1-6)]Man(b1-4)GlcNAc(b1-4)GlcNAc
Summary of the method: as §1

[15] = target: Neu5Ac(a2-3)Gal(b1-4)GlcNAc(b1-2)[Neu5Ac(a2-3)Gal(b1-4)GlcNAc(b1-4)]Man(a1-3)[GlcNAc(b1-4)][Neu5Ac(a2-3)Gal(b1-4)GlcNAc(b1-2)[Neu5Ac(a2-3)Gal(b1-4)GlcNAc(b1-6)]Man(a1-6)]Man(b1-4)GlcNAc(b1-4)GlcNAc
Summary of the method: as §1

[16] = target: Neu5Ac(a2-3)Gal(b1-4)GlcNAc(b1-2)[Neu5Ac(a2-3)Gal(b1-4)GlcNAc(b1-4)]Man(a1-3)[GlcNAc(b1-4)][Neu5Ac(a2-3)Gal(b1-4)GlcNAc(b1-4)Man(a1-6)]Man(b1-4)GlcNAc(b1-4)GlcNAc
Summary of the method: as §1

[17] = target: Neu5Ac(a2-3)Gal(b1-4)GlcNAc(b1-2)[Neu5Ac(a2-3)Gal(b1-4)GlcNAc(b1-6)]Man(a1-6)[Neu5Ac(a2-3)Gal(b1-4)GlcNAc(b1-2)Man(a1-3)][GlcNAc(b1-4)]Man(b1-4)GlcNAc(b1-4)GlcNAc
Summary of the method: as §1

[18] = target: Neu5Ac(a2-3)Gal(b1-4)GlcNAc(b1-3)Gal
Summary of the method: as §1

[19] = target: Neu5Ac(a2-3)Gal(b1-4)GlcNAc(b1-3)Gal(b1-3)GlcNAc
Summary of the method: as §1

[20] = target: Neu5Ac(a2-3)Gal(b1-4)GlcNAc(b1-3)Gal(b1-4)GlcNAc
Summary of the method: as §1

[21] = target: Neu5Ac(a2-3)Gal(b1-4)GlcNAc(b1-3)Gal(b1-4)GlcNAc(b1-2)Man(a1-3)[Neu5Ac(a2-3)Gal(b1-4)GlcNAc(b1-3)Gal(b1-4)GlcNAc(b1-2)Man(a1-6)]Man(b1-4)GlcNAc(b1-4)GlcNAc
Summary of the method: as §1

[22] = target: Neu5Ac(a2-3)Gal(b1-4)GlcNAc(b1-3)Gal(b1-4)GlcNAc(b1-3)Gal(b1-4)GlcNAc
Summary of the method: as §1

[23] = target: Neu5Ac(a2-3)Gal(b1-4)GlcNAc(b1-3)Gal(b1-4)GlcNAc(b1-3)Gal(b1-4)GlcNAc(b1-2)Man(a1-3)[Neu5Ac(a2-3)Gal(b1-4)GlcNAc(b1-3)Gal(b1-4)GlcNAc(b1-3)Gal(b1-4)GlcNAc(b1-2)Man(a1-6)]GalNAc
Summary of the method: as §1

[24] = target: Neu5Ac(a2-3)Gal(b1-4)GlcNAc(b1-3)Gal(b1-4)GlcNAc(b1-3)GalNAc
Summary of the method: as §1

[25] = target: Neu5Ac(a2-3)Gal(b1-4)GlcNAc(b1-3)Gal(b1-4)GlcNAc(b1-3)[Neu5Ac(a2-3)Gal(b1-4)GlcNAc(b1-3)Gal(b1-4)GlcNAc(b1-6)]GalNAc
Summary of the method: as §1

[26] = target: Neu5Ac(a2-3)Gal(b1-4)GlcNAc(b1-3)Gal(b1-4)GlcNAc(b1-6)[Gal(b1-3)]GalNAc
Summary of the method: as §1

[27] = target: Neu5Ac(a2-3)Gal(b1-4)GlcNAc(b1-3)Gal(b1-4)[Fuc(a1-3)]GlcNAc
Summary of the method: as §1

[28] = target: Neu5Ac(a2-3)Gal(b1-4)GlcNAc(b1-3)GalNAc
Summary of the method: as §1

[29] = target: Neu5Ac(a2-3)Gal(b1-4)GlcNAc(b1-3)[Neu5Ac(a2-3)Gal(b1-4)GlcNAc(b1-6)]GalNAc
Summary of the method: as §1

[30] = target: Neu5Ac(a2-3)Gal(b1-4)GlcNAc(b1-6)GalNAc
Summary of the method: as §1

[31] = target: Neu5Ac(a2-3)Gal(b1-4)GlcNAc(b1-6)[Gal(b1-3)]GalNAc
Summary of the method: as §1

[32] = target: Neu5Ac(a2-3)Gal(b1-4)GlcNAc(b1-6)[Neu5Ac(a2-3)Gal(b1-3)]GalNAc
Summary of the method: as §1

[33] = target: Neu5Ac(a2-3)Gal(b1-4)GlcNAc6S
Summary of the method: as §1

[34] = target: Neu5Ac(a2-3)Gal(b1-4)[Fuc(a1-3)]GlcNAc
Summary of the method: as §1

[35] = target: Neu5Ac(a2-3)Gal(b1-4)[Fuc(a1-3)]GlcNAc(b1-2)Man
Summary of the method: as §1

[36] = target: Neu5Ac(a2-3)Gal(b1-4)[Fuc(a1-3)]GlcNAc(b1-3)Gal
Summary of the method: as §1

[37] = target: Neu5Ac(a2-3)Gal(b1-4)[Fuc(a1-3)]GlcNAc(b1-3)Gal(b1-4)GlcNAc
Summary of the method: as §1

[38] = target: Neu5Ac(a2-3)Gal(b1-4)[Fuc(a1-3)]GlcNAc(b1-3)Gal(b1-4)[Fuc(a1-3)]GlcNAc(b1-3)Gal(b1-4)[Fuc(a1-3)]GlcNAc
Summary of the method: as §1

[39] = target: Neu5Ac(a2-3)Gal(b1-4)[Fuc(a1-3)]GlcNAc(b1-3)GalNAc
Summary of the method: as §1

[40] = target: Neu5Ac(a2-3)Gal(b1-4)[Fuc(a1-3)]GlcNAc(b1-6)[Gal(b1-3)]GalNAc
Summary of the method: as §1

[41] = target: Neu5Ac(a2-3)Gal(b1-4)[Fuc(a1-3)]GlcNAc(b1-6)[Neu5Ac(a2-3)Gal(b1-3)]GalNAc
Summary of the method: as §1

[42] = target: Neu5Ac(a2-3)Gal(b1-4)[Fuc(a1-3)]GlcNAc6S
Summary of the method: as §1

[43] = target: Neu5Ac(a2-3)Gal6S(b1-4)GlcNAc
Summary of the method: as §1

[44] = target: Neu5Ac(a2-3)Gal6S(b1-4)[Fuc(a1-3)]GlcNAc
Summary of the method: as §1

B1: Aap arpt (Staphylococcus epidermidis) (protein)
chain: NNEAPQMSSTLQAEEGSNAEAPQSEPTKAEEGGNAEAAQSEPTKAEEGGNAEAPQSEPTKAEEGGNAEAAQSEPTKTEEGSNVKAAQSEPTKAEEGSNAEAPQSEPTKTEEGSNAKAAQSEPTKAEEGGNAEAAQSEPTKTEEGSNAEAPQSEPTKAEEGGYAEAPQSEPTKTEEGGNAEAPNVPTIKA
glycan array binding signal (z-score) [1]: 0.561 | glycan array binding signal (z-score) [2]: -0.52 | glycan array binding signal (z-score) [3]: 0.827 | glycan array binding signal (z-score) [4]: 0.571 | glycan array binding signal (z-score) [5]: 0.285 | glycan array binding signal (z-score) [6]: -0.022 | glycan array binding signal (z-score) [7]: 0.084 | glycan array binding signal (z-score) [8]: 2.21 | glycan array binding signal (z-score) (Neu5Ac(a2-3)Gal(b1-4)Glc): 1.58 | glycan array binding signal (z-score) [9]: -0.774 | glycan array binding signal (z-score) [10]: -0.95 | glycan array binding signal (z-score) [11]: 1.15 | glycan array binding signal (z-score) [12]: 3 | glycan array binding signal (z-score) [13]: 1.48 | glycan array binding signal (z-score) [14]: -0.856 | glycan array binding signal (z-score) [15]: -1.68 | glycan array binding signal (z-score) [16]: -0.462 | glycan array binding signal (z-score) [17]: -0.557 | glycan array binding signal (z-score) [18]: 0.66 | glycan array binding signal (z-score) [19]: -0.565 | glycan array binding signal (z-score) [20]: -1.09 | glycan array binding signal (z-score) [21]: -1.28 | glycan array binding signal (z-score) [22]: 0.424 | glycan array binding signal (z-score) [23]: -0.499 | glycan array binding signal (z-score) [24]: 0.687 | glycan array binding signal (z-score) [25]: -0.338 | glycan array binding signal (z-score) [26]: -0.491 | glycan array binding signal (z-score) [27]: -0.571 | glycan array binding signal (z-score) [28]: -0.74 | glycan array binding signal (z-score) [29]: -0.333 | glycan array binding signal (z-score) [30]: -0.433 | glycan array binding signal (z-score) [31]: 0.944 | glycan array binding signal (z-score) [32]: 1.62 | glycan array binding signal (z-score) [33]: -0.327 | glycan array binding signal (z-score) [34]: -0.468 | glycan array binding signal (z-score) [35]: 0.72 | glycan array binding signal (z-score) [36]: -0.164 | glycan array binding signal (z-score) [37]: -0.262 | glycan array binding signal (z-score) [38]: 0.998 | glycan array binding signal (z-score) [39]: 0.511 | glycan array binding signal (z-score) [40]: -0.496 | glycan array binding signal (z-score) [41]: -0.911 | glycan array binding signal (z-score) [42]: 0.521 | glycan array binding signal (z-score) [43]: -0.12 | glycan array binding signal (z-score) [44]: 0.034
